PubChem BioAssay AID1671195, Yale University – 2021
Aim: 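Genes whose knockdown alters LDL uptake in liver cancer cells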 (primary screen). Cell system: human Huh7 hepatoma cells. Reagent: siRNA pool against human genes, 18 nM. Time to read-out: about 2 to 2.5 days of knockdown, then 8 h LDL uptake. Conditions: DiI-labelled LDL at 30 µg/ml for 8 h, in lipoprotein-deficient serum medium. Measurement: 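Fluorescent LDL signal imaged in cells, scaled to the plate median, robust z-score for each replicate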. Reading the numbers: robust z-score: higher = more LDL uptake after knockdown. Call rule: 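a gene counts as active if at least two replicate z-scores exceed ±2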.
Shown is an unselected part of about 22,000 reagents. About 1,510 of them (6.9%) were called active. 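Active includes knockdowns raising or lowering LDL uptake; positive z-scores mean more uptake, negative mean less.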 Unmarked entries are inactive.

| gene knocked down | robust z-score, replicate 1 | robust z-score, replicate 2 | robust z-score, replicate 3 |
| --- | --- | --- | --- |
| ZNF662 (zinc finger protein 662) | 2.47 | 0.571 | 0.03 |
| HS6ST1 (heparan sulfate 6-O-sulfotransferase 1) | 0.586 | -0.105 | 0.212 |
| ZNF669 (zinc finger protein 669) | 1.93 | 1.37 | 1.22 |
| GTF2H3 (general transcription factor IIH subunit 3) | 0.313 | -0.0942 | 0.151 |
| LATS1 (large tumor suppressor kinase 1) | 0.502 | 2.2 | 0.99 |
| NIBAN3 (niban apoptosis regulator 3) | 0.625 | 0.105 | 0.353 |
| LSM8 (LSM8 homolog, U6 small nuclear RNA associated) | -0.378 | -0.979 | -1.31 |
| SMARCB1 (SWI/SNF related BAF chromatin remodeling complex subunit B1) | -0.827 | -1.33 | -0.479 |
| ZNF679 (zinc finger protein 679) | 1.6 | 0.502 | 0.486 |
| QPRT (quinolinate phosphoribosyltransferase) | -0.456 | -0.306 | -0.719 |
| TXN2 (thioredoxin 2) | 0.0298 | -0.172 | -0.129 |
| LINC02789 (long independently transcribed non-coding RNA 2789) | -0.0888 | -0.221 | 0.0276 |
| PFDN5 (prefoldin subunit 5) | -0.249 | -0.566 | -0.402 |
| SLC25A23 | 2.35 | -0.152 | -2.16 |
| LYG2 (lysozyme g2) | 0.967 | 0.4 | 0.809 |
| GAS8-AS1 (GAS8 antisense RNA 1) | -2 (active) | -1.22 | -2.18 |
| LOC440545 (retired record) | -0.78 | -0.365 | -0.801 |
| LOC401703 (U2 small nuclear RNA auxiliary factor 1 like 4 pseudogene) | -0.000379 | 0.269 | 0.523 |
| YJEFN3 (YjeF N-terminal domain containing 3) | 0.279 | 0.665 | 0.474 |
| ZSCAN16 (zinc finger and SCAN domain containing 16) | -0.27 | -0.412 | -1.03 |
| SMAD1 (SMAD family member 1) | 0.287 | 0.581 | 0.426 |
| TCP11L1 (t-complex 11 like 1) | 1.19 | -1.22 | -0.042 |
| HEATR9 (HEAT repeat containing 9) | 0.297 | 0.118 | 0.365 |
| MBD3L1 (methyl-CpG binding domain protein 3 like 1) | -0.64 | -0.904 | -1.1 |
| LOC442600 (retired record) | -0.0311 | 0.226 | 0.166 |
| ATP4A (ATPase H+/K+ transporting subunit alpha) | -0.116 | -0.508 | -0.443 |
| OR1J4 (olfactory receptor family 1 subfamily J member 4) | 0.505 | -0.0184 | -1.33 |
| LOC389370 (retired record) | -0.325 | -0.129 | -0.464 |
| DDX28 (DEAD-box helicase 28) | 0.634 | 1.21 | 0.961 |
| ZNF407 (zinc finger protein 407) | -2.17 (active) | -2.21 | -2.51 |
| ABR (ABR activator of RhoGEF and GTPase) | -0.46 | -0.292 | 0.00742 |
| L1TD1 (LINE1 type transposase domain containing 1) | 0.261 | 0.185 | 0.0429 |
| NUP62CL (nucleoporin 62 C-terminal like) | 0.411 | -0.0863 | 1.49 |
| SPATA9 (spermatogenesis associated 9) | -0.982 | -0.618 | -0.327 |
| KCNMA1 (potassium calcium-activated channel subfamily M alpha 1) | 2.34 (active) | 1.24 | 2.2 |
| DNAJC14 (DnaJ heat shock protein family (Hsp40) member C14) | 0.808 | -0.0462 | -0.0175 |
| MAP3K8 (mitogen-activated protein kinase kinase kinase 8) | -0.733 | -0.837 | -0.3 |
| OR8D4 (olfactory receptor family 8 subfamily D member 4) | -0.862 | -0.599 | -0.299 |
| SNU13 (small nuclear ribonucleoprotein 13) | -0.884 | -0.355 | -0.967 |
| AKR1B1P8 (aldo-keto reductase family 1 member B1 pseudogene 8) | -0.544 | 1.05 | 0.716 |
| CRYBG2 (crystallin beta-gamma domain containing 2) | 3.1 (active) | 0.662 | 2.33 |
| PKN1 (protein kinase N1) | 1.79 | 2.33 | 0.427 |
| MYO1G (myosin IG) | 0.672 | 1.2 | 0.683 |
| ZNF57 (zinc finger protein 57) | -0.626 | -0.615 | 0.297 |
| SUGCT (succinyl-CoA:glutarate-CoA transferase) | 1.07 | 1.92 | 1.61 |
| ZNF300P1 (zinc finger protein 300 pseudogene 1) | 0.375 | 0.272 | 0.972 |
| KPNA2 (karyopherin subunit alpha 2) | -0.42 | -0.944 | -0.644 |
| DCAF7 (DDB1 and CUL4 associated factor 7) | -0.285 | -1.42 | 0.838 |
| LYRM9 (LYR motif containing 9) | -2.16 (active) | -2.11 | -0.902 |
| MOB3A (MOB kinase activator 3A) | -0.448 | -1.1 | -1.45 |

8 entries from above, arranged by “robust z-score, replicate 3”, ascending:
| gene knocked down | robust z-score, replicate 1 | robust z-score, replicate 2 | robust z-score, replicate 3 |
| --- | --- | --- | --- |
| LSM8 (LSM8 homolog, U6 small nuclear RNA associated) | -0.378 | -0.979 | -1.31 |
| QPRT (quinolinate phosphoribosyltransferase) | -0.456 | -0.306 | -0.719 |
| SMARCB1 (SWI/SNF related BAF chromatin remodeling complex subunit B1) | -0.827 | -1.33 | -0.479 |
| TXN2 (thioredoxin 2) | 0.0298 | -0.172 | -0.129 |
| GTF2H3 (general transcription factor IIH subunit 3) | 0.313 | -0.0942 | 0.151 |
| NIBAN3 (niban apoptosis regulator 3) | 0.625 | 0.105 | 0.353 |
| ZNF679 (zinc finger protein 679) | 1.6 | 0.502 | 0.486 |
| LATS1 (large tumor suppressor kinase 1) | 0.502 | 2.2 | 0.99 |

The listing continues.
| gene knocked down | robust z-score, replicate 1 | robust z-score, replicate 2 | robust z-score, replicate 3 |
| --- | --- | --- | --- |
| COX15 (cytochrome c oxidase assembly factor COX15) | 0.282 | -0.705 | -0.954 |
| CIDEB (cell death inducing DFFA like effector b) | -0.293 | 2.4 | 1.36 |
| LINC00477 (long independently transcribed non-coding RNA 477) | 0.4 | 0.394 | 0.414 |
| LOC389660 (retired record) | -1.64 | -1.68 | -1.39 |
| PRSS16 (serine protease 16) | 0.307 | 0.456 | 0.28 |
| VRK1 (VRK serine/threonine kinase 1) | 0.781 | 1.6 | 2.72 |
| MDH1 (malate dehydrogenase 1) | -1.27 | -1.13 | -1.15 |
| CPOX (coproporphyrinogen oxidase) | -0.0531 | 0.347 | 0.189 |
| LOC442115 (retired record) | -0.869 | -0.539 | -0.131 |
| GBP5 (guanylate binding protein 5) | -0.851 | -1.65 | -1.22 |
| POU4F2 (POU class 4 homeobox 2) | -0.332 | -0.932 | -0.623 |
| RCC1 (regulator of chromosome condensation 1) | 0.613 | 0.969 | 0.925 |
| LOC440778 (retired record) | 0.774 | 0.54 | 0.56 |
| AGTRAP (angiotensin II receptor associated protein) | -0.705 | -0.568 | -0.195 |
| PNOC (prepronociceptin) | 0.708 | 0.432 | 0.803 |
| FBLN5 (fibulin 5) | 2.19 (active) | 0.842 | 3.27 |
| ANKHD1-EIF4EBP3 (ANKHD1-EIF4EBP3 readthrough) | -0.83 | 0.885 | 0.909 |
| LDLRAD4 (low density lipoprotein receptor class A domain containing 4) | -0.878 | 0.24 | -0.848 |
| SLC35F4 | 0.63 | 0.565 | 0.883 |
| RAD50 (RAD50 double strand break repair protein) | -0.795 | -1.17 | -0.735 |
| LOC130839 (retired record) | 0.207 | 0.386 | -0.221 |
| RPL9 (ribosomal protein L9) | -2.01 | -0.196 | -1.83 |
| SF3B5 (splicing factor 3b subunit 5) | -0.522 | -1.05 | -0.691 |
| LPAL2 (lipoprotein(a) like 2 (pseudogene)) | -1.59 | -1.76 | -1.18 |
| FOXG1 (forkhead box G1) | 0.532 | 1.16 | 1.34 |
| C2orf15 (chromosome 2 open reading frame 15) | 1.4 | 0.259 | 0.792 |
| FNDC1 (fibronectin type III domain containing 1) | 0.139 | 0.506 | 0.585 |
| GPR137 (G protein-coupled receptor 137) | 0.1 | -0.12 | 0.869 |
| SGCD (sarcoglycan delta) | 0.712 | -0.361 | -1.08 |
| TEDC2-AS1 (TEDC2 antisense RNA 1) | -1.19 | -1 | -0.737 |
| MEPE (matrix extracellular phosphoglycoprotein) | 1.48 | 0.449 | -0.033 |
| BIRC8 (baculoviral IAP repeat containing 8) | 1.11 | 0.953 | 0.487 |
| BIN3-IT1 (BIN3 intronic transcript 1) | -0.291 | -0.162 | -0.07 |
| CD99L2 (CD99 molecule like 2) | -0.341 | 0.0433 | -0.0498 |
| ZNF214 (zinc finger protein 214) | 0.283 | 1 | 0.639 |
| TLR4 (toll like receptor 4) | 0.46 | -1.09 | 0.0341 |
| KIR3DL2 | 0.134 | 0.328 | 0.767 |
